{
  "source": "the supplement of paper PMC8728848",
  "assay_in_all_cases": "glycan array binding signal (z-score within array); higher = stronger binding",
  "conditions_in_all_cases": "glycan notation: IUPAC condensed, linker removed",
  "key": {"[1]": {"target": "Gal(b1-4)GlcNAc(b1-2)[Gal(b1-4)GlcNAc(b1-6)]Man(a1-6)[GlcNAc(b1-4)][Gal(b1-4)GlcNAc(b1-2)Man(a1-3)]Man(b1-4)GlcNAc(b1-4)GlcNAc", "how_it_was_run": "(§1)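 Negative Z-scores can be read as non-binding. The Z-score is calculated within each array and then averaged across arrays of one protein sequence at different concentrations or buffers and across linkers. Arrays, 3228 in all, were curated from the Consortium for Functional Glycomics database and kept only where the protein sequence was available.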"}, "[2]": {"target": "Gal(b1-4)GlcNAc(b1-2)[Gal(b1-4)GlcNAc(b1-6)]Man(a1-6)[GlcNAc(b1-4)][Gal(b1-4)GlcNAc(b1-2)[Gal(b1-4)GlcNAc(b1-4)]Man(a1-3)]Man(b1-4)GlcNAc(b1-4)[Fuc(a1-6)]GlcNAc", "how_it_was_run": "as §1"}, "[3]": {"target": "Gal(b1-4)GlcNAc(b1-3)Gal(b1-3)GalNAc", "how_it_was_run": "as §1"}, "[4]": {"target": "Gal(b1-4)GlcNAc(b1-3)Gal(b1-3)GlcNAc", "how_it_was_run": "as §1"}, "[5]": {"target": "Gal(b1-4)GlcNAc(b1-3)Gal(b1-4)Glc", "how_it_was_run": "as §1"}, "[6]": {"target": "Gal(b1-4)GlcNAc(b1-3)Gal(b1-4)GlcNAc", "how_it_was_run": "as §1"}, "[7]": {"target": "Gal(b1-4)GlcNAc(b1-3)Gal(b1-4)GlcNAc(b1-2)Man(a1-3)[Gal(b1-4)GlcNAc(b1-3)Gal(b1-4)GlcNAc(b1-2)Man(a1-6)]Man(b1-4)GlcNAc(b1-4)GlcNAc", "how_it_was_run": "as §1"}, "[8]": {"target": "Gal(b1-4)GlcNAc(b1-3)Gal(b1-4)GlcNAc(b1-2)Man(a1-3)[Gal(b1-4)GlcNAc(b1-3)Gal(b1-4)GlcNAc(b1-2)Man(a1-6)]Man(b1-4)GlcNAc(b1-4)[Fuc(a1-6)]GlcNAc", "how_it_was_run": "as §1"}, "[9]": {"target": "Gal(b1-4)GlcNAc(b1-3)Gal(b1-4)GlcNAc(b1-2)[Gal(b1-4)GlcNAc(b1-3)Gal(b1-4)GlcNAc(b1-6)]Man(a1-6)[Gal(b1-4)GlcNAc(b1-3)Gal(b1-4)GlcNAc(b1-2)Man(a1-3)]Man(b1-4)GlcNAc(b1-4)GlcNAc", "how_it_was_run": "as §1"}, "[10]": {"target": "Gal(b1-4)GlcNAc(b1-3)Gal(b1-4)GlcNAc(b1-2)[Gal(b1-4)GlcNAc(b1-3)Gal(b1-4)GlcNAc(b1-6)]Man(a1-6)[Gal(b1-4)GlcNAc(b1-3)Gal(b1-4)GlcNAc(b1-2)Man(a1-3)]Man(b1-4)GlcNAc(b1-4)[Fuc(a1-6)]GlcNAc", "how_it_was_run": "as §1"}, "[11]": {"target": "Gal(b1-4)GlcNAc(b1-3)Gal(b1-4)GlcNAc(b1-3)Gal(b1-4)GlcNAc", "how_it_was_run": "as §1"}, "[12]": {"target": "Gal(b1-4)GlcNAc(b1-3)Gal(b1-4)GlcNAc(b1-3)Gal(b1-4)GlcNAc(b1-2)Man(a1-3)[Gal(b1-4)GlcNAc(b1-3)Gal(b1-4)GlcNAc(b1-3)Gal(b1-4)GlcNAc(b1-2)Man(a1-6)]Man(b1-4)GlcNAc(b1-4)GlcNAc", "how_it_was_run": "as §1"}, "[13]": {"target": "Gal(b1-4)GlcNAc(b1-3)Gal(b1-4)GlcNAc(b1-3)Gal(b1-4)GlcNAc(b1-2)Man(a1-3)[Gal(b1-4)GlcNAc(b1-3)Gal(b1-4)GlcNAc(b1-3)Gal(b1-4)GlcNAc(b1-2)Man(a1-6)]Man(b1-4)GlcNAc(b1-4)[Fuc(a1-6)]GlcNAc", "how_it_was_run": "as §1"}, "[14]": {"target": "Gal(b1-4)GlcNAc(b1-3)Gal(b1-4)GlcNAc(b1-3)Gal(b1-4)GlcNAc(b1-2)[Gal(b1-4)GlcNAc(b1-3)Gal(b1-4)GlcNAc(b1-3)Gal(b1-4)GlcNAc(b1-6)]Man(a1-6)[Gal(b1-4)GlcNAc(b1-3)Gal(b1-4)GlcNAc(b1-3)Gal(b1-4)GlcNAc(b1-2)Man(a1-3)]Man(b1-4)GlcNAc(b1-4)[Fuc(a1-6)]GlcNAc", "how_it_was_run": "as §1"}, "[15]": {"target": "Gal(b1-4)GlcNAc(b1-3)Gal(b1-4)GlcNAc(b1-3)Gal(b1-4)GlcNAc(b1-3)Gal(b1-4)GlcNAc(b1-2)Man(a1-3)[Gal(b1-4)GlcNAc(b1-3)Gal(b1-4)GlcNAc(b1-3)Gal(b1-4)GlcNAc(b1-3)Gal(b1-4)GlcNAc(b1-2)Man(a1-6)]Man(b1-4)GlcNAc(b1-4)GlcNAc", "how_it_was_run": "as §1"}, "[16]": {"target": "Gal(b1-4)GlcNAc(b1-3)Gal(b1-4)GlcNAc(b1-3)Gal(b1-4)GlcNAc(b1-3)Gal(b1-4)GlcNAc(b1-2)Man(a1-3)[Gal(b1-4)GlcNAc(b1-3)Gal(b1-4)GlcNAc(b1-3)Gal(b1-4)GlcNAc(b1-3)Gal(b1-4)GlcNAc(b1-2)Man(a1-6)]Man(b1-4)GlcNAc(b1-4)[Fuc(a1-6)]GlcNAc", "how_it_was_run": "as §1"}, "[17]": {"target": "Gal(b1-4)GlcNAc(b1-3)Gal(b1-4)GlcNAc(b1-3)Gal(b1-4)GlcNAc(b1-3)Gal(b1-4)GlcNAc(b1-2)[Gal(b1-4)GlcNAc(b1-3)Gal(b1-4)GlcNAc(b1-3)Gal(b1-4)GlcNAc(b1-3)Gal(b1-4)GlcNAc(b1-6)]Man(a1-6)[Gal(b1-4)GlcNAc(b1-3)Gal(b1-4)GlcNAc(b1-3)Gal(b1-4)GlcNAc(b1-3)Gal(b1-4)GlcNAc(b1-2)Man(a1-3)]Man(b1-4)GlcNAc(b1-4)[Fuc(a1-6)]GlcNAc", "how_it_was_run": "as §1"}, "[18]": {"target": "Gal(b1-4)GlcNAc(b1-3)Gal(b1-4)GlcNAc(b1-3)Gal(b1-4)GlcNAc(b1-3)Gal(b1-4)GlcNAc(b1-3)Gal(b1-4)GlcNAc(b1-2)Man(a1-3)[Gal(b1-4)GlcNAc(b1-3)Gal(b1-4)GlcNAc(b1-3)Gal(b1-4)GlcNAc(b1-3)Gal(b1-4)GlcNAc(b1-3)Gal(b1-4)GlcNAc(b1-2)Man(a1-6)]Man(b1-4)GlcNAc(b1-4)GlcNAc", "how_it_was_run": "as §1"}, "[19]": {"target": "Gal(b1-4)GlcNAc(b1-3)Gal(b1-4)GlcNAc(b1-3)Gal(b1-4)GlcNAc(b1-3)Gal(b1-4)GlcNAc(b1-3)Gal(b1-4)GlcNAc(b1-2)Man(a1-3)[Gal(b1-4)GlcNAc(b1-3)Gal(b1-4)GlcNAc(b1-3)Gal(b1-4)GlcNAc(b1-3)Gal(b1-4)GlcNAc(b1-3)Gal(b1-4)GlcNAc(b1-2)Man(a1-6)]Man(b1-4)GlcNAc(b1-4)[Fuc(a1-6)]GlcNAc", "how_it_was_run": "as §1"}},
  "note": "The other results are listed elsewhere or left out.",
  "data": [
    {"binder": "SynCAM (Mus musculus) (protein) MASAVLPSGSQCAAAAAVAAAAAPPGLRLRLLLLLLSAAALIPTGDGQNLFTKDVTVIEGEVATISCQVNKSDDSVIQLLNPNRQTIYFRDFRPLKDSRFQLLNFSSSELKVSLTNVSISDEGRYFCQLYTDPPQESYTTITVLVPPRNLMIDIQKDTAVEGEEIEVNCTAMASKPATTIRWFKGNKELKGKSEVEEWSDMYTVTSQLMLKVHKEDDGVPVICQVEHPAVTGNLQTQRYLEVQYKPQVHIQMTYPLQGLTREGDAFELTCEAIGKPQPVMVTWVRVDDEMPQHAVLSGPNLFINNLNKTDNGTYRCEASNIVGKAHSDYMLYVYDPPTTIPPP", "values": [
      {"measurement": "glycan array binding signal (z-score)", "setting": "[1]", "result": 0.244},
      {"measurement": "glycan array binding signal (z-score)", "setting": "[2]", "result": 0.502},
      {"measurement": "glycan array binding signal (z-score)", "setting": "[3]", "result": -0.9},
      {"measurement": "glycan array binding signal (z-score)", "setting": "[4]", "result": -1.11},
      {"measurement": "glycan array binding signal (z-score)", "setting": "[5]", "result": -0.237},
      {"measurement": "glycan array binding signal (z-score)", "setting": "[6]", "result": 0.298},
      {"measurement": "glycan array binding signal (z-score)", "setting": "[7]", "result": 2.96},
      {"measurement": "glycan array binding signal (z-score)", "setting": "[8]", "result": 0.981},
      {"measurement": "glycan array binding signal (z-score)", "setting": "[9]", "result": 0.285},
      {"measurement": "glycan array binding signal (z-score)", "setting": "[10]", "result": 0.69},
      {"measurement": "glycan array binding signal (z-score)", "setting": "[11]", "result": -0.05},
      {"measurement": "glycan array binding signal (z-score)", "setting": "[12]", "result": 0.872},
      {"measurement": "glycan array binding signal (z-score)", "setting": "[13]", "result": 1.48},
      {"measurement": "glycan array binding signal (z-score)", "setting": "[14]", "result": 1.93},
      {"measurement": "glycan array binding signal (z-score)", "setting": "[15]", "result": 1.32},
      {"measurement": "glycan array binding signal (z-score)", "setting": "[16]", "result": 0.094},
      {"measurement": "glycan array binding signal (z-score)", "setting": "[17]", "result": 2.18},
      {"measurement": "glycan array binding signal (z-score)", "setting": "[18]", "result": 1.71},
      {"measurement": "glycan array binding signal (z-score)", "setting": "[19]", "result": 1.49}
    ]}
  ]
}
